{"sequences": {"note": "The chains behind the UniProt entries cited, without tags or fusion partners. Where a name states a change or a piece, a line headed by the entry shows the natural chain unless it says otherwise.", "UniProt Q8N2K0": "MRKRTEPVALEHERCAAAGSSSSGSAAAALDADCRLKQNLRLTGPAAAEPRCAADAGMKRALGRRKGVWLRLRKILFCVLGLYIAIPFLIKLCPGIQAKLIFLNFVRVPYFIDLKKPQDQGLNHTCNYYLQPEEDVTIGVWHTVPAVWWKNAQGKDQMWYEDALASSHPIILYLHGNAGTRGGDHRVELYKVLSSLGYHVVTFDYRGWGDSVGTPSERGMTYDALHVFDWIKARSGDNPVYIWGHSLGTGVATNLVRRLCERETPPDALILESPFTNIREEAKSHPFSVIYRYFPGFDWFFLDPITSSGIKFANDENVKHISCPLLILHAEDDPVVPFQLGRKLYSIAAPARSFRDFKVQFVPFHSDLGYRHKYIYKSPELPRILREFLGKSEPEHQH", "UniProt Q8NI08": "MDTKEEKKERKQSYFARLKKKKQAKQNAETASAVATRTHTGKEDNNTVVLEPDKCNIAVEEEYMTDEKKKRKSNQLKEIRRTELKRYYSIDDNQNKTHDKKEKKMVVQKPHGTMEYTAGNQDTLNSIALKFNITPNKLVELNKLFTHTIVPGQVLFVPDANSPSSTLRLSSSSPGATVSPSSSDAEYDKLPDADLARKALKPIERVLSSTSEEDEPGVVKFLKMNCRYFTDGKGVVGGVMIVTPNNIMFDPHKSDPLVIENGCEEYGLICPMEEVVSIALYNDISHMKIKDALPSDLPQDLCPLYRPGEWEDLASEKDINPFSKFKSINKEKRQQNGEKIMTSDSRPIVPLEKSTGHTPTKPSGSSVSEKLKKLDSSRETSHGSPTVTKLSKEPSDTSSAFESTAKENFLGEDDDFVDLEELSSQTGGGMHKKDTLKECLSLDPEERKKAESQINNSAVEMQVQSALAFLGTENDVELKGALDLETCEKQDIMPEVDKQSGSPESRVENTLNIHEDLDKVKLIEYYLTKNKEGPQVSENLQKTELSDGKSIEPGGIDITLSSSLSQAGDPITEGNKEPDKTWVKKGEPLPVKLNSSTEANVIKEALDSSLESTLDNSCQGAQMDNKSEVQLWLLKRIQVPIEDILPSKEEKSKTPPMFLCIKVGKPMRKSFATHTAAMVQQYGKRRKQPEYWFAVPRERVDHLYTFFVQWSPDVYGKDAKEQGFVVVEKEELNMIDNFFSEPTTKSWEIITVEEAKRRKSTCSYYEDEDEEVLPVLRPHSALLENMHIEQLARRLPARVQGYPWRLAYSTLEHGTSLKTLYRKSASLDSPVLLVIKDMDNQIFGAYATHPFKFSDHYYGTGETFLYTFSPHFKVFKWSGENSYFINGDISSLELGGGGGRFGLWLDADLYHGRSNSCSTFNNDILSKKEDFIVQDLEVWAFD", "UniProt Q8IVS2": "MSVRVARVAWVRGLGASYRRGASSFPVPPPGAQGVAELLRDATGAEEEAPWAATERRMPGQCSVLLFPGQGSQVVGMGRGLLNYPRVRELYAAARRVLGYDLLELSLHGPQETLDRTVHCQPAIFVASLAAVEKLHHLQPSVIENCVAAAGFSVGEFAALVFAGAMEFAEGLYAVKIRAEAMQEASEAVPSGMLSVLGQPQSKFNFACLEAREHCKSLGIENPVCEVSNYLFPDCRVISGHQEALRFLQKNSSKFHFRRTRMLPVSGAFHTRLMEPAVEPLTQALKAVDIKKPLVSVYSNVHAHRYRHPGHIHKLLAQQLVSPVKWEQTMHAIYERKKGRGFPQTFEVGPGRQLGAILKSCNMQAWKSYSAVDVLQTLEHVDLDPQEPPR", "UniProt Q8NHU6": "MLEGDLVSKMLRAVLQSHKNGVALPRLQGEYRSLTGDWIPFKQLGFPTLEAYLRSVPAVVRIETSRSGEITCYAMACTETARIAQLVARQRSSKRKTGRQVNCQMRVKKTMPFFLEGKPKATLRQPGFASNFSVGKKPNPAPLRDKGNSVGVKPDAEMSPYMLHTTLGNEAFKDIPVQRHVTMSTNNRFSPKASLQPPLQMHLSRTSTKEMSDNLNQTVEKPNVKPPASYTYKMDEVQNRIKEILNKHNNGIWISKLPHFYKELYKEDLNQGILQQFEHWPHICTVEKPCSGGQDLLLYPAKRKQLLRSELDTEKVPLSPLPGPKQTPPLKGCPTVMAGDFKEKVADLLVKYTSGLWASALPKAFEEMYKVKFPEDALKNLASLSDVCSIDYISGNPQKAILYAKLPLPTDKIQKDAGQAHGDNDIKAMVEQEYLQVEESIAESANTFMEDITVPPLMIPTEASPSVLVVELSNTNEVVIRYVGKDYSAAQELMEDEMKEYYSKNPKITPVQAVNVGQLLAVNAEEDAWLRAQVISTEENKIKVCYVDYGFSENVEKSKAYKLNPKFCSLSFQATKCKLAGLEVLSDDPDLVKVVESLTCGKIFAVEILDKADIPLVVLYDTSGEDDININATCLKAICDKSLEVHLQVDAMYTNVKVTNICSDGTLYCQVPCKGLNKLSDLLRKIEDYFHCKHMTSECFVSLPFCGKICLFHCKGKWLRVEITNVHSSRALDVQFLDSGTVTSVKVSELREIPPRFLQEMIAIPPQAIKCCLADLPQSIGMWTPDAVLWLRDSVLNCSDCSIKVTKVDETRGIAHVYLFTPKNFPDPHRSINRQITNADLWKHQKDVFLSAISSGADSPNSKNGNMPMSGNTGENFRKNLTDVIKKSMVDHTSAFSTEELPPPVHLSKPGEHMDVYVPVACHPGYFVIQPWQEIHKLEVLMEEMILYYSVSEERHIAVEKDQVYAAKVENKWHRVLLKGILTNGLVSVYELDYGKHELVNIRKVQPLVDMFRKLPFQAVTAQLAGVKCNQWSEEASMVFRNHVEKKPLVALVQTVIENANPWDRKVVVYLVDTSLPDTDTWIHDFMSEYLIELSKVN", "UniProt Q8IWT6": "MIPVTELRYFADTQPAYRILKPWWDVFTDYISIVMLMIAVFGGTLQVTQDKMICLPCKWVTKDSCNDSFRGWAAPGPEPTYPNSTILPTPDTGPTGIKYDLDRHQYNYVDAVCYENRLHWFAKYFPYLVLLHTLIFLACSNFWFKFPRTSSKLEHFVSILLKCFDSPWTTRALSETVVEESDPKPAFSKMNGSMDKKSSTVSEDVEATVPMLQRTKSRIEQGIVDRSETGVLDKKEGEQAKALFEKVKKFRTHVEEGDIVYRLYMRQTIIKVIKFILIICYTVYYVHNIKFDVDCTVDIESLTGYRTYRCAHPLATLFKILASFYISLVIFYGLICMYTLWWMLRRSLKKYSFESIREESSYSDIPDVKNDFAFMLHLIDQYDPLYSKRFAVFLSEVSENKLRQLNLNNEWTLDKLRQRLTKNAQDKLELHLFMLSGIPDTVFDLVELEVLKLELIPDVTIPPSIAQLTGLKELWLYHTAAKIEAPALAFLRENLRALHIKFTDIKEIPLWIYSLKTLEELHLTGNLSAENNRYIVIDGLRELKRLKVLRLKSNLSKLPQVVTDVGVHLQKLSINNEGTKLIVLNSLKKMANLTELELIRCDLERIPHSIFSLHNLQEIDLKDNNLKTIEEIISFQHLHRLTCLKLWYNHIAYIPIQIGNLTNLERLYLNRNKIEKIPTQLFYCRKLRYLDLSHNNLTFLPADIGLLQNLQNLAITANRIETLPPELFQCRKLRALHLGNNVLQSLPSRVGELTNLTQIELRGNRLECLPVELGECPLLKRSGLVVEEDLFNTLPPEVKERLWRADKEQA", "UniProt Q8NHP8": "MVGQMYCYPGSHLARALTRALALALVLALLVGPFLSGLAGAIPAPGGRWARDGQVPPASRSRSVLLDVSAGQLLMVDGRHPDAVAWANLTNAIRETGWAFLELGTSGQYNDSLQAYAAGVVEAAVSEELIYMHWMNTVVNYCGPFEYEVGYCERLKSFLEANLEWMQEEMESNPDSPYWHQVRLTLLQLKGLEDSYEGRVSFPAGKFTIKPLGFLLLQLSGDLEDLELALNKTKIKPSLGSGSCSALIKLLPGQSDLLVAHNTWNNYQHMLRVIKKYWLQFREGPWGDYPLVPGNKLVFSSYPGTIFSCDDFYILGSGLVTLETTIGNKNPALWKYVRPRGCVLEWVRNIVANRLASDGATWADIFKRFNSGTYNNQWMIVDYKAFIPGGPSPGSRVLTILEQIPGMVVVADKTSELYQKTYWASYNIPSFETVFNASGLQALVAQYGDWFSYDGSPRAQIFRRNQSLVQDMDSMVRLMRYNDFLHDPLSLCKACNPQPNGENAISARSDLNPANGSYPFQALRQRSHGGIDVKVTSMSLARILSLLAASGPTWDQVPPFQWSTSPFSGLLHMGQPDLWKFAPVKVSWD", "UniProt Q8NHM5": "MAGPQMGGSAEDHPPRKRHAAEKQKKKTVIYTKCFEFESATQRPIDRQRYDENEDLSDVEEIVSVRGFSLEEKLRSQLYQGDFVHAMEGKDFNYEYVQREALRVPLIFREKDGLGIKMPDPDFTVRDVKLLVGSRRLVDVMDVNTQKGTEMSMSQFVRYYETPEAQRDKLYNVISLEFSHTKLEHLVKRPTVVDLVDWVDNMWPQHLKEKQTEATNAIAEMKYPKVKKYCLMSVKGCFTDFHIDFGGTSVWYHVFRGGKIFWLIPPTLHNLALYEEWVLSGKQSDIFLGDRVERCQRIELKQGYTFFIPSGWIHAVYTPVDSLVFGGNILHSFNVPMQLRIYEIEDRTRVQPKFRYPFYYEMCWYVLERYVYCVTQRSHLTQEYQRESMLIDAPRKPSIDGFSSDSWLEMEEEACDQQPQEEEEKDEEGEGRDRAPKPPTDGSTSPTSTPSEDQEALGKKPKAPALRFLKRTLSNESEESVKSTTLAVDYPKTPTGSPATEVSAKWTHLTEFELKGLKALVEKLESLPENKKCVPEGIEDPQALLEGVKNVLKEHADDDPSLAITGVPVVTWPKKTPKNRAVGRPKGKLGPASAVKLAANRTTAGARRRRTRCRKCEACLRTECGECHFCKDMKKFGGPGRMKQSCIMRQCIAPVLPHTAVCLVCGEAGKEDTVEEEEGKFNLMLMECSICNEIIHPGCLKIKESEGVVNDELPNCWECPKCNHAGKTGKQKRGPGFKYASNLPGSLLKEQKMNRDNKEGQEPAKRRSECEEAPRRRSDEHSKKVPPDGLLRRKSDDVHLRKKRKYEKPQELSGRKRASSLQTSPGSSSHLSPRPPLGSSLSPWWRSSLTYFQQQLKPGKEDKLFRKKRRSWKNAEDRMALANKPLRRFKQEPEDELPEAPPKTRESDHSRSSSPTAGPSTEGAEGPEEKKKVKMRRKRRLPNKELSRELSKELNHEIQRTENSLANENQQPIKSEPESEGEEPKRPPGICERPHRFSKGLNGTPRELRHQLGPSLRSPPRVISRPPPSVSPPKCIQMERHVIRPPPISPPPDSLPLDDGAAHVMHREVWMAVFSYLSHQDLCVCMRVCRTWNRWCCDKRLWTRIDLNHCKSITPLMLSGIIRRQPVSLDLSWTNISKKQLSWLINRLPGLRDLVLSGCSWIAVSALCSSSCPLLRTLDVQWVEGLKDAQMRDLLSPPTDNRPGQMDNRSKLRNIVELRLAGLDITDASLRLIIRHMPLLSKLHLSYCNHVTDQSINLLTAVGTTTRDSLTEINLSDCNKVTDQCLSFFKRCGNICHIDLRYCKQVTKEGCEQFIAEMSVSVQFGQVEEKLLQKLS", "UniProt Q8N4V1": "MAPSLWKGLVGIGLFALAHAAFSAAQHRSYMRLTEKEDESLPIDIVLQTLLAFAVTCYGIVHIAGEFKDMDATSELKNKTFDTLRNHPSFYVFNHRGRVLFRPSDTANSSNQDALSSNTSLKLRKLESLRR", "UniProt Q8IZ81": "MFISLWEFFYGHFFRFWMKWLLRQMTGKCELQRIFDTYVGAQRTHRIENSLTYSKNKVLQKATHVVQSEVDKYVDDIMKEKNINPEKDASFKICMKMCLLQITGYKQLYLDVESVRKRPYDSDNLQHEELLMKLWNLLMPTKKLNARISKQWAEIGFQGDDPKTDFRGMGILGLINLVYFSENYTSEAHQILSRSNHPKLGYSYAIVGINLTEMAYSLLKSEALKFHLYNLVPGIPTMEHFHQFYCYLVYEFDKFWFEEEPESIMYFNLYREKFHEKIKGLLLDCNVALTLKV", "UniProt Q8IXW5, whole entry": "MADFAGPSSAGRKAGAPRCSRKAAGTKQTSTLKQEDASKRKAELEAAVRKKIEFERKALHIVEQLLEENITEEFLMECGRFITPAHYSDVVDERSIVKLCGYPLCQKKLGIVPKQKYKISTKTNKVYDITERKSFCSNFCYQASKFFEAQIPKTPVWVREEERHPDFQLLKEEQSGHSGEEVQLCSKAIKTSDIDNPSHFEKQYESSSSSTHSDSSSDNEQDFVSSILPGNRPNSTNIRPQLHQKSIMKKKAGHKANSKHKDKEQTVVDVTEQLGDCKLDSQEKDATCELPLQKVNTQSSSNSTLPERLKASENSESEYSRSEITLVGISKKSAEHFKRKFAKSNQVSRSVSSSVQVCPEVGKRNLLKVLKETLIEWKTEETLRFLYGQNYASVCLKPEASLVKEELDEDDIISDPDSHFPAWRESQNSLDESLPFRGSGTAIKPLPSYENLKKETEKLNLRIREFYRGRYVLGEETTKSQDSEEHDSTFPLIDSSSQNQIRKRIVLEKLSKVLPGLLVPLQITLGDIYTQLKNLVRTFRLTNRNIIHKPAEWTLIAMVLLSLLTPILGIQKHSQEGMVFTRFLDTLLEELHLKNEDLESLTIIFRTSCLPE"}, "source": "the supplement of paper PMC6411743", "note": "± gives the standard deviation of the averaged measurements. This is one part of the list.", "data": [{"compound": "Nc1nc2c(ncn2[C@@H]2O[C@H](COP(=O)(O)OP(=O)(O)OP(=O)(O)O)[C@@H](O)[C@H]2O)c(=O)[nH]1 [guanosine triphosphate]", "test": "NP40-soluble protein abundance relative to vehicle (solubility fold change) (ratio); higher = more soluble protein in presence of GTP", "settings": "concentration: 10mM", "how_it_was_run": "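Each value is a fold change relative to the detergent-processed vehicle, calculated per replicate from vsn-normalised intensities. Jurkat crude lysate received eight concentrations (0.1 to 10 mM) for 10 min at room temperature and 3 min at 37 °C, then was solubilised in 0.8% NP40 with benzonase (60 min, 4 °C). The ultracentrifuged supernatant was TMT-labelled and run by LC-MS/MS in three independent experiments.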", "values": [{"target": "UniProt Q8N2K0 and related entries", "NP40-soluble protein abundance": "0.976 ± 0.034"}, {"target": "UniProt Q8NI08 and related entries", "NP40-soluble protein abundance": "0.908 ± 0.054"}, {"target": "UniProt Q8N6G5 and related entries", "NP40-soluble protein abundance": "0.99 ± 0.051"}, {"target": "UniProt Q8IVS2", "NP40-soluble protein abundance": "1 ± 0.077"}, {"target": "UniProt Q8IWY9 and related entries", "NP40-soluble protein abundance": "0.986 ± 0.028"}, {"target": "UniProt Q8NEC7 and related entries", "NP40-soluble protein abundance": "1.03 ± 0.016"}, {"target": "UniProt Q8NHU6 and related entries", "NP40-soluble protein abundance": "1.04 ± 0.038"}, {"target": "UniProt Q8TEH3 and related entries", "NP40-soluble protein abundance": "0.96 ± 0.2"}, {"target": "DCP2 (UniProt Q8IU60)", "NP40-soluble protein abundance": "0.979 ± 0.047"}, {"target": "LRRC8A (UniProt Q8IWT6)", "NP40-soluble protein abundance": "1.26 ± 0.097"}, {"target": "UniProt Q8IX12 and related entries", "NP40-soluble protein abundance": "1.14 ± 0.059"}, {"target": "UniProt Q8ND76 and related entries", "NP40-soluble protein abundance": "1.07 ± 0.24"}, {"target": "UniProt Q8N4C8 and related entries", "NP40-soluble protein abundance": "1.06 ± 0.045"}, {"target": "NFATC2IP (UniProt Q8NCF5)", "NP40-soluble protein abundance": "0.979 ± 0.12"}, {"target": "UniProt Q8NDI1-2|Q8NDI1-3|Q8NDI1", "NP40-soluble protein abundance": "0.892 ± 0.07"}, {"target": "NUP43 (UniProt Q8NFH3)", "NP40-soluble protein abundance": "1.13 ± 0.066"}, {"target": "PLBD2 (UniProt Q8NHP8)", "NP40-soluble protein abundance": "0.916 ± 0.016"}, {"target": "UniProt Q8IYB5-2|Q8IYB5-3", "NP40-soluble protein abundance": "0.888 ± 0.095"}, {"target": "RNF169 (UniProt Q8NCN4)", "NP40-soluble protein abundance": "1.52 ± 0.15"}, {"target": "ZC3H15 (UniProt Q8WU90)", "NP40-soluble protein abundance": "0.967 ± 0.067"}, {"target": "UniProt Q8IXQ5 and related entries", "NP40-soluble protein abundance": "1.03 ± 0.32"}, {"target": "UniProt Q8NFV4 and related entries", "NP40-soluble protein abundance": "0.961 ± 0.014"}, {"target": "UniProt Q8TDY2 and related entries", "NP40-soluble protein abundance": "1.07 ± 0.081"}, {"target": "UniProt Q8NBJ5", "NP40-soluble protein abundance": "0.862 ± 0.055"}, {"target": "UniProt Q8NCW5", "NP40-soluble protein abundance": "0.969 ± 0.1"}, {"target": "UniProt Q8NHM5 and related entries", "NP40-soluble protein abundance": "1.19 ± 0.15"}, {"target": "ZNF579 (UniProt Q8NAF0)", "NP40-soluble protein abundance": "1 ± 0.061"}, {"target": "UniProt Q8N4V1 and related entries", "NP40-soluble protein abundance": "0.971 ± 0.01"}, {"target": "UniProt Q8IZ81 and related entries", "NP40-soluble protein abundance": "0.802 ± 0.051"}, {"target": "UniProt Q8IXW5 and related entries", "NP40-soluble protein abundance": "1.03 ± 0.026"}, {"target": "MLKL (UniProt Q8NB16)", "NP40-soluble protein abundance": "0.837 ± 0.024"}, {"target": "UniProt Q8NDV3 and related entries", "NP40-soluble protein abundance": "0.959 ± 0.12"}, {"target": "LIX1L (UniProt Q8IVB5)", "NP40-soluble protein abundance": "0.927 ± 0.079"}, {"target": "GALNT12 (UniProt Q8IXK2)", "NP40-soluble protein abundance": "0.889 ± 0.11"}, {"target": "UniProt Q8N0Y2 and related entries", "NP40-soluble protein abundance": "0.948 ± 0.048"}, {"target": "PPIL4 (UniProt Q8WUA2)", "NP40-soluble protein abundance": "0.977 ± 0.047"}, {"target": "DDX51 (UniProt Q8N8A6)", "NP40-soluble protein abundance": "2.1 ± 0.15"}]}]}
